Like-named read-outs stand apart in the source and are kept apart here. These are yes or no findings as the source states them, for the method shown. In cells and extracts the contact can be indirect. Some binding calls cover weakened binding; strength is not graded here. Tags and fused reporters may be left off the sequences shown.
How the values were obtained:
Assay in all cases: co-IP
[1] = target: T1, GOT1B-FLAG (GOLT1B-Flag), stably expressed in HEK293T cells (human) (UniProt Q9Y3E0)
T1 sequence: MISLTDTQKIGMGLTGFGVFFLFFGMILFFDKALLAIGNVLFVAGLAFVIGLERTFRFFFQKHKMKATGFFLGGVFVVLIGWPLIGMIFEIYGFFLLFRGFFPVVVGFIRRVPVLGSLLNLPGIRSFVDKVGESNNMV

Amino acid sequences for entries named in this document (tags omitted).
UniProt Q969M3: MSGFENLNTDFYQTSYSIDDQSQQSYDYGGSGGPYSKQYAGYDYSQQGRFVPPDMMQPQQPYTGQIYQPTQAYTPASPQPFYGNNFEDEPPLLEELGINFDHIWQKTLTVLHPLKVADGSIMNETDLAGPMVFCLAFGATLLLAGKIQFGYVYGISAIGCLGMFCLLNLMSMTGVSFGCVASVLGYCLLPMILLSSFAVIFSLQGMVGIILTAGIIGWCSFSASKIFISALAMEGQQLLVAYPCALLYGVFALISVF

[2] = target: T2, V5-GOT1A (V5-GOLT1A), transfected in HEK293T cells (human) (UniProt Q6ZVE7)
T2 sequence: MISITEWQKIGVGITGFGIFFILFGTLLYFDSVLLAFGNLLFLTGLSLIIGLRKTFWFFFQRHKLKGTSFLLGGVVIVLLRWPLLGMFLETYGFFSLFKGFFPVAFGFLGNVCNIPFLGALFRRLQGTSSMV

[3] = target: T3, FLAG-GOT1A (Flag-GOLT1A), stably overexpressed in MCF10A cells (human) (UniProt Q6ZVE7)
T3 sequence: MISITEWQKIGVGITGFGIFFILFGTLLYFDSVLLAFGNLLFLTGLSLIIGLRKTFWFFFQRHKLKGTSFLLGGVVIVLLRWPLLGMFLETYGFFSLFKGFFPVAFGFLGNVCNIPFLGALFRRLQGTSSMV

[4] = target: T4, GOT1B-FLAG (GOLT1B-Flag), stably overexpressed in MCF10A cells (human) (UniProt Q9Y3E0)
T4 sequence: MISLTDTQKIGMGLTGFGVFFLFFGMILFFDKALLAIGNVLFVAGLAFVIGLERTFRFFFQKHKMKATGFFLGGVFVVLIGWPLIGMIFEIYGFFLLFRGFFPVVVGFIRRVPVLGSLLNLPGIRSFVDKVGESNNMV

[5] = target: T3, FLAG-GOT1A (Flag-GOLT1A), stably overexpressed in MCF10A cells (human); remark: listed apart in the source
[6] = target: T4, GOT1B-FLAG (GOLT1B-Flag), stably overexpressed in MCF10A cells (human); remark: listed apart in the source
[7] = target: T1, GOT1B-FLAG (GOLT1B-Flag), stably expressed in HEK293T cells (human); remark: listed apart in the source
[8] = target: T2, V5-GOT1A (V5-GOLT1A), transfected in HEK293T cells (human); remark: listed apart in the source

Question: For “YIPF5, endogenous in HEK293T cells (from UniProt Q969M3 1-257)”, which binding [1] is on record?
Answer: The binding was “binds”.

Question: And the binding [2]?
Answer: The binding was “binds”.

Question: With “YIPF5, endogenous in MCF10A cells (from UniProt Q969M3 1-257)” as the molecule, how does the binding [3] read?
Answer: Its binding is “binds”.

Question: What about the binding [4] of the same molecule?
Answer: The binding was “binds”.

B1: YIF1A, endogenous in MCF10A cells (protein, UniProt O95070 1-293)
chain: MAYHSGYGAHGSKHRARAAPDPPPLFDDTSGGYSSQPGGYPATGADVAFSVNHLLGDPMANVAMAYGSSIASHGKDMVHKELHRFVSVSKLKYFFAVDTAYVAKKLGLLVFPYTHQNWEVQYSRDAPLPPRQDLNAPDLYIPTMAFITYVLLAGMALGIQKRFSPEVLGLCASTALVWVVMEVLALLLGLYLATVRSDLSTFHLLAYSGYKYVGMILSVLTGLLFGSDGYYVALAWTSSALMYFIVRSLRTAALGPDSMGGPVPRQRLQLYLTLGAAAFQPLIIYWLTFHLVR
Question: With B1 as the molecule, how does the binding [5] read?
Answer: Its binding is “binds”.

Question: And the binding [6]?
Answer: Its binding is “binds”.

B2: V5-GOT1A (V5-GOLT1A), transfected in HEK293T cells (protein, UniProt Q6ZVE7 1-132)
chain: MISITEWQKIGVGITGFGIFFILFGTLLYFDSVLLAFGNLLFLTGLSLIIGLRKTFWFFFQRHKLKGTSFLLGGVVIVLLRWPLLGMFLETYGFFSLFKGFFPVAFGFLGNVCNIPFLGALFRRLQGTSSMV
Question: With B2 as the molecule, how does the binding [7] read?
Answer: Its binding is “binds”.

Question: And the binding [8]?
Answer: The binding was “binds”.

B3: GOT1B-FLAG (GOLT1B-Flag), stably expressed in HEK293T cells (protein, UniProt Q9Y3E0 1-138)
chain: MISLTDTQKIGMGLTGFGVFFLFFGMILFFDKALLAIGNVLFVAGLAFVIGLERTFRFFFQKHKMKATGFFLGGVFVVLIGWPLIGMIFEIYGFFLLFRGFFPVVVGFIRRVPVLGSLLNLPGIRSFVDKVGESNNMV
Question: How did the binding [8] turn out when B3 was run?
Answer: The binding was “binds”.
